Measured data: PubChem BioAssay AID1259424 (University of Nebraska Medical Center, 2018)

Test: 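Seek colon cancer survival genes behaving like KSR1, using a six-gene signature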 (primary screen)
Cell system: human HCT116 colon cancer cells
Reagent: siRNA pool against human genes, 50 nM
Measurement: 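Log2 levels of six mRNAs (branched-DNA multiplex), adjusted by two reference genes and the non-targeting median, then scored against the average KSR1 knockdown pattern as Pearson r and euclidean distance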
Reading the numbers: mean correlation with KSR1 profile: higher = expression change more like KSR1 knockdown
In all, the deposit lists about 14,000 reagents; shown is an unselected part. 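Higher correlation or smaller distance means closer resemblance to KSR1 loss; control wells, including KSR1 knockdowns, recur on many plates.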 Reagents against one gene are numbered here. A reagent listed more than once was tested more than once; the source does not tell the runs apart. Further read-outs or replicates are left out here. No sequences are given here. Not stated in the record: the time to read-out.

mean correlation with KSR1 profile, by gene and reagent
PAX5 (paired box 5): #1 0.833
PARP16 (poly(ADP-ribose) polymerase family member 16): #1 -0.626
NFAT5 (nuclear factor of activated T cells 5): #1 -0.205
CHST9 (carbohydrate sulfotransferase 9): #1 0.345
GMEB2 (glucocorticoid modulatory element binding protein 2): #1 0.00767
DLGAP1 (DLG associated protein 1): #1 -0.544
PCDHA7 (protocadherin alpha 7): #1 0.152
RUFY1 (RUN and FYVE domain containing 1): #1 -0.355
TRPC7: #1 -0.153
MOB4 (MOB family member 4, phocein): #1 -0.661
B3GALT5 (beta-1,3-galactosyltransferase 5): #1 0.464
PGA5 (pepsinogen A5): #1 0.0577
RASL10A (RAS like family 10 member A): #1 0.268
PCDHB11 (protocadherin beta 11): #1 0.0457
POM121 (POM121 transmembrane nucleoporin): #1 -0.149
UNC80 (unc-80 subunit of NALCN channel complex): #1 0.0438
TLE4 (TLE family member 4, transcriptional corepressor): #1 -0.107
TNFRSF11B (TNF receptor superfamily member 11b): #1 -0.0141
CDC14C (cell division cycle 14C): #1 0.341
ABI1 (abl interactor 1): #1 0.254
NAT14 (N-acetyltransferase 14 (putative)): #1 0.486
UGT2B4 (UDP glucuronosyltransferase family 2 member B4): #1 0.392
STS (steroid sulfatase): #1 -0.0595
RTL9 (retrotransposon Gag like 9): #1 -0.332
EZH2 (enhancer of zeste 2 polycomb repressive complex 2 subunit): #1 -0.372
GDF1 (growth differentiation factor 1): #1 0.243
PID1 (phosphotyrosine interaction domain containing 1): #1 -0.433
CHP1 (calcineurin like EF-hand protein 1): #1 0.211
MT1L (metallothionein 1L (pseudogene)): #1 -0.946
ATXN8OS (ATXN8 opposite strand lncRNA): #1 -0.18
RPL41 (ribosomal protein L41): #1 -0.349
UXT (ubiquitously expressed prefoldin like chaperone): #1 0.0698
NARS2 (asparaginyl-tRNA synthetase 2, mitochondrial): #1 0.193
KCNK9 (potassium two pore domain channel subfamily K member 9): #1 -0.295
BCL2L2 (BCL2 like 2): #1 -0.313
HOXB13 (homeobox B13): #1 0.722
DEAF1 (DEAF1 transcription factor): #1 -0.609
VPS9D1 (VPS9 domain containing 1): #1 -0.275
STOML1 (stomatin like 1): #1 -0.39
TXNDC11 (thioredoxin domain containing 11): #1 -0.312
PRELID3A (PRELI domain containing 3A): #1 0.35
INIP (INTS3 and NABP interacting protein): #1 0.152
BHMT (betaine--homocysteine S-methyltransferase): #1 0.462
CROCC (ciliary rootlet coiled-coil, rootletin): #1 -0.0718
TIMM8A (translocase of inner mitochondrial membrane 8A): #1 -0.261
IBTK (inhibitor of Bruton tyrosine kinase): #1 -0.415; #1 -0.2
RBX1 (ring-box 1): #1 -0.728
TOP1MT (DNA topoisomerase I mitochondrial): #1 0.186
ITIH5 (inter-alpha-trypsin inhibitor heavy chain 5): #1 0.626; #2 0.912

A few values from the entries so far:
CHST9 (carbohydrate sulfotransferase 9), mean correlation with KSR1 profile = 0.345
For “mean correlation with KSR1 profile”, BCL2L2 (BCL2 like 2) shows -0.313
Entry of CDC14C (cell division cycle 14C) under “mean correlation with KSR1 profile”: 0.341
For “mean correlation with KSR1 profile”, PAX5 (paired box 5) shows 0.833
